This note sets out measurements from publication doi:10.1101/2023.05.07.539754.

Chains of the proteins cited; added tags and fusions are not shown. Lines headed by an entry give the natural chain unless they say otherwise; changes in a name come on top. A line that says so, or that is headed by a name, gives the form on record, which may keep a tag or linker.
UniProt P10275: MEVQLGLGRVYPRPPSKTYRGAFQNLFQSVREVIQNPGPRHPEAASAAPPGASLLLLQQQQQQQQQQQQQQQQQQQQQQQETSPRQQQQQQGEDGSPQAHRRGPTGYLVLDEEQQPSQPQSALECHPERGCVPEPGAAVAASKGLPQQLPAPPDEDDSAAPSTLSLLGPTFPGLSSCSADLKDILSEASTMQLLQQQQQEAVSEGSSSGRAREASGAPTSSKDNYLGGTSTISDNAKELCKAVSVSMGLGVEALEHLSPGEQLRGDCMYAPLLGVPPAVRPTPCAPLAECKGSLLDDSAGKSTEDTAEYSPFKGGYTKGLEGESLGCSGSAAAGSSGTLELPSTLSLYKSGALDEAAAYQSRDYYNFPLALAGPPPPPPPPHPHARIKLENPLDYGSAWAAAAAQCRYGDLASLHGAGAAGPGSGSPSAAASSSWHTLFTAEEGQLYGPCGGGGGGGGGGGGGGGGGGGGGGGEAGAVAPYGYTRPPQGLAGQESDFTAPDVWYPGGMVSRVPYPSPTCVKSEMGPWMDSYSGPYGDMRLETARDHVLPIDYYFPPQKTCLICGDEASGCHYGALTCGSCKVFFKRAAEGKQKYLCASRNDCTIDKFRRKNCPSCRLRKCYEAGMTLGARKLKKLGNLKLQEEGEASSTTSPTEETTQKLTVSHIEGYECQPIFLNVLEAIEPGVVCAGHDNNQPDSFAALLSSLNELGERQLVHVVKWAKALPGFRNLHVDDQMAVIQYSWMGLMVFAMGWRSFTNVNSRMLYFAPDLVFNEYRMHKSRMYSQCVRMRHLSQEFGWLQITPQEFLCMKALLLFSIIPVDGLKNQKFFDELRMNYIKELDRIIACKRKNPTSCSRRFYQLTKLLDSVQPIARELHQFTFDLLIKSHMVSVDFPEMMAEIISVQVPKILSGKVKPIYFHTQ
ARV7 (P10275-3, form named): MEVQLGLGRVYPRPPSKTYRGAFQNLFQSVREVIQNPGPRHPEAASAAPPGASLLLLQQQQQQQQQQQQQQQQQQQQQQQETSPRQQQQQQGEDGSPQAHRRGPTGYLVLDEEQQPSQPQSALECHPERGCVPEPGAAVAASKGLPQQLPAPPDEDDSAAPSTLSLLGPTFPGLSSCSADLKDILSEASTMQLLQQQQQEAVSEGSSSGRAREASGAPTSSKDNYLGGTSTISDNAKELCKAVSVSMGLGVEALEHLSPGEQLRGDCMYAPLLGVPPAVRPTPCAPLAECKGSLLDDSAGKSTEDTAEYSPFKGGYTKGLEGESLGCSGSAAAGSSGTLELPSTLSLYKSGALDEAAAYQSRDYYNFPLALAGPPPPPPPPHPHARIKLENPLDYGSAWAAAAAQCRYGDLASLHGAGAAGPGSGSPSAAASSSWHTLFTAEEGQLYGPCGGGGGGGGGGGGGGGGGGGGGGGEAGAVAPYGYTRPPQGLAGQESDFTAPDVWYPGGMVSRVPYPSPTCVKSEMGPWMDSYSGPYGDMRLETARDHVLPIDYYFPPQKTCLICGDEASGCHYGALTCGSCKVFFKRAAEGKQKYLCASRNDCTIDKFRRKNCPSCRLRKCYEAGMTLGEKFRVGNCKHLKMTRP
UniProt P04150: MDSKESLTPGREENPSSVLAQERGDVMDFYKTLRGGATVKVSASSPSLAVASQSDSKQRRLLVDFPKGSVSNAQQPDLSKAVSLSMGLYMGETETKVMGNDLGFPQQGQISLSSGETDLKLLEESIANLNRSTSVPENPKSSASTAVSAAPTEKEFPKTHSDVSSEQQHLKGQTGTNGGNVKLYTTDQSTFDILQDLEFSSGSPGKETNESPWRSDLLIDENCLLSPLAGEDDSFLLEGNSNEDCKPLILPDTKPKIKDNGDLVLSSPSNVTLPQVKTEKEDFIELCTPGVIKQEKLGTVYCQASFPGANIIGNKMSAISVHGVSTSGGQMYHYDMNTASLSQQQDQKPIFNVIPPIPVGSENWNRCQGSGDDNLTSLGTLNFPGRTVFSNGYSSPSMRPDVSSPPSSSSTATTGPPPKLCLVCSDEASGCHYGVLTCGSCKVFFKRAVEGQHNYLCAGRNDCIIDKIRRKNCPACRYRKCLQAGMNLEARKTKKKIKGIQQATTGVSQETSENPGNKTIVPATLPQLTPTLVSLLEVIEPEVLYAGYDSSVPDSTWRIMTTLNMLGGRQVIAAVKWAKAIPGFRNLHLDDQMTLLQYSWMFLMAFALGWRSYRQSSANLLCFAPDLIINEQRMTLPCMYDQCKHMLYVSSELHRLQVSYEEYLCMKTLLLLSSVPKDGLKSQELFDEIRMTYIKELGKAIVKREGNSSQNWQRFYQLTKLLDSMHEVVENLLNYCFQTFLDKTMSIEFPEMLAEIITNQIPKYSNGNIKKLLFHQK

These are yes or no findings as the source states them, for the method shown. In cells and extracts the contact can be indirect. Some binding calls cover weakened binding; strength is not graded here.

In this assay the target is T1, TBX2 (human (endogenous in 22Rv1 and C4-2B)) (UniProt Q13207).
T1 sequence: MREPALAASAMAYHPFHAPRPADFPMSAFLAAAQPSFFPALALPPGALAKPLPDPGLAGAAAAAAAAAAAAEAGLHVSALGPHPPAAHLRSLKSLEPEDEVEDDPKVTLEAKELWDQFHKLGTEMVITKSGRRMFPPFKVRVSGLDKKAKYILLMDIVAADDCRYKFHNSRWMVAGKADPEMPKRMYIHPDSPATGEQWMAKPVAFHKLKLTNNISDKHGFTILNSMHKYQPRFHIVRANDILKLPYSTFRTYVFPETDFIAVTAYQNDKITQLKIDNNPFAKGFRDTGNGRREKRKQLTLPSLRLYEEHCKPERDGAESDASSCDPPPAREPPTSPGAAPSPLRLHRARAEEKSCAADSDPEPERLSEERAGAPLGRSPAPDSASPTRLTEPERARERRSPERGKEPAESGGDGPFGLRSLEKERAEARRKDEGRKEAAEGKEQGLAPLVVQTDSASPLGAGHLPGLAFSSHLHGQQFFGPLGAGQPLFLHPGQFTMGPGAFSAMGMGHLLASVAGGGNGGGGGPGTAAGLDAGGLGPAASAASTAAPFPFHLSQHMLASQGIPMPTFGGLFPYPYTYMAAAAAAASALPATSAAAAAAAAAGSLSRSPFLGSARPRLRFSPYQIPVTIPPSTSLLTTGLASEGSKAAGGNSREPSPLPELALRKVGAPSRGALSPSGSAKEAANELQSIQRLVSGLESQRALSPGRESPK
Briefly: co-IP.
On to ARV7 (from UniProt P10275-3 1-644), for which the binding result is reported as “no binding”.

For “androgen receptor (from UniProt P10275 1-920)”, the binding result is listed as “no binding”.

Regarding “glucocorticoid receptor (from UniProt P04150 1-777)”, the binding result is reported as “binds”.
